Record: PubChem BioAssay AID1159584 (Peter MacCallum Cancer Centre, 2016)

Assay: 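Genes whose loss is lethal only together with E-cadherin loss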 (primary screen)
System: human MCF10A breast epithelial cells, parental and CDH1-null
Reagents: siRNA against human genes
Measured: 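ATP luminescence (CellTiter-Glo) viability per line relative to mean mock wells over all plates, and the ratio of CDH1-null to parental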
Scale: CDH1-null / parental viability ratio: higher = CDH1-null cells survive relatively better than parental
The whole screen tested about 18,000 reagents; this is a part drawn at random. Not all columns of the deposit are shown. Not given: the amount of reagent, the time to read-out.

BRICD5 (BRICHOS domain containing 5) [SID135621700]
- CDH1-null / parental viability ratio: 0.98

NUP85 (nucleoporin 85) [SID135622753]
- CDH1-null / parental viability ratio: 1.2

SPINK6 (serine peptidase inhibitor Kazal type 6) [SID152150139]
- CDH1-null / parental viability ratio: 0.95

ADAMTS9 (ADAM metallopeptidase with thrombospondin type 1 motif 9) [SID152155261]
- CDH1-null / parental viability ratio: 1.21

KIAA0753 [SID152148159]
- CDH1-null / parental viability ratio: 0.89

BRCA1 (BRCA1 DNA repair associated) [SID152150608]
- CDH1-null / parental viability ratio: 1.04

ZIM2 (zinc finger imprinted 2) [SID135625063]
- CDH1-null / parental viability ratio: 1.05

TBC1D4 (TBC1 domain family member 4) [SID152154064]
- CDH1-null / parental viability ratio: 1.02

SORBS3 (sorbin and SH3 domain containing 3) [SID152155462]
- CDH1-null / parental viability ratio: 0.85

COPS9 (COP9 signalosome subunit 9) [SID134319540]
- CDH1-null / parental viability ratio: 0.92

TMEM106A (transmembrane protein 106A) [SID134320381]
- CDH1-null / parental viability ratio: 1.16

PLPPR1 (phospholipid phosphatase related 1) [SID134324399]
- CDH1-null / parental viability ratio: 1.22

LRRTM1 (leucine rich repeat transmembrane neuronal 1) [SID135623507]
- CDH1-null / parental viability ratio: 1.2

SCYL3 (SCY1 like pseudokinase 3) [SID56479033]
- CDH1-null / parental viability ratio: 0.84

Continued; the last 3 above are carried over.
PLPPR1 (phospholipid phosphatase related 1) [SID134324399]
- CDH1-null / parental viability ratio: 1.22

LRRTM1 (leucine rich repeat transmembrane neuronal 1) [SID135623507]
- CDH1-null / parental viability ratio: 1.2

SCYL3 (SCY1 like pseudokinase 3) [SID56479033]
- CDH1-null / parental viability ratio: 0.84

OR8G2P (olfactory receptor family 8 subfamily G member 2 pseudogene) [SID135624847]
- CDH1-null / parental viability ratio: 0.84

PARP2 (poly(ADP-ribose) polymerase 2) [SID152151120]
- CDH1-null / parental viability ratio: 0.9

ZNF638 (zinc finger protein 638) [SID152150158]
- CDH1-null / parental viability ratio: 0.86

YTHDC2 (YTH N6-methyladenosine RNA binding protein C2) [SID134318395]
- CDH1-null / parental viability ratio: 1.12

TMEM214 (transmembrane protein 214) [SID152148632]
- CDH1-null / parental viability ratio: 0.96

ZNF107 (zinc finger protein 107) [SID152150249]
- CDH1-null / parental viability ratio: 1.12

KCND1 (potassium voltage-gated channel subfamily D member 1) [SID134311642]
- CDH1-null / parental viability ratio: 1.02

LUC7L (LUC7 like) [SID134319495]
- CDH1-null / parental viability ratio: 0.85

NUB1 (negative regulator of ubiquitin like proteins 1) [SID152152635]
- CDH1-null / parental viability ratio: 1.34

TMEM42 (transmembrane protein 42) [SID152156058]
- CDH1-null / parental viability ratio: 0.96

DEAF1 (DEAF1 transcription factor) [SID135624065]
- CDH1-null / parental viability ratio: 0.9

TRAPPC6B (trafficking protein particle complex subunit 6B) [SID152148552]
- CDH1-null / parental viability ratio: 0.93

QRICH2 (glutamine rich 2) [SID134318888]
- CDH1-null / parental viability ratio: 1.07

ARHGAP11B (Rho GTPase activating protein 11B) [SID135625428]
- CDH1-null / parental viability ratio: 0.87

PARG (poly(ADP-ribose) glycohydrolase) [SID135622132]
- CDH1-null / parental viability ratio: 1

RGS8 (regulator of G protein signaling 8) [SID135621530]
- CDH1-null / parental viability ratio: 0.95

EIF2B3 (eukaryotic translation initiation factor 2B subunit gamma) [SID135620792]
- CDH1-null / parental viability ratio: 0.93

HTR1A (5-hydroxytryptamine receptor 1A) [SID152150470]
- CDH1-null / parental viability ratio: 1.76

MAPK13 (mitogen-activated protein kinase 13) [SID56478704]
- CDH1-null / parental viability ratio: 1.01

TAS2R7 (taste 2 receptor member 7) [SID152150216]
- CDH1-null / parental viability ratio: 0.9

ZNF208 (zinc finger protein 208) [SID152151933]
- CDH1-null / parental viability ratio: 1.07
